Here are results for one molecule from patent publication US20120015885A1.

Amino acid sequences for entries named in this document (tags omitted).
UniProt P11275: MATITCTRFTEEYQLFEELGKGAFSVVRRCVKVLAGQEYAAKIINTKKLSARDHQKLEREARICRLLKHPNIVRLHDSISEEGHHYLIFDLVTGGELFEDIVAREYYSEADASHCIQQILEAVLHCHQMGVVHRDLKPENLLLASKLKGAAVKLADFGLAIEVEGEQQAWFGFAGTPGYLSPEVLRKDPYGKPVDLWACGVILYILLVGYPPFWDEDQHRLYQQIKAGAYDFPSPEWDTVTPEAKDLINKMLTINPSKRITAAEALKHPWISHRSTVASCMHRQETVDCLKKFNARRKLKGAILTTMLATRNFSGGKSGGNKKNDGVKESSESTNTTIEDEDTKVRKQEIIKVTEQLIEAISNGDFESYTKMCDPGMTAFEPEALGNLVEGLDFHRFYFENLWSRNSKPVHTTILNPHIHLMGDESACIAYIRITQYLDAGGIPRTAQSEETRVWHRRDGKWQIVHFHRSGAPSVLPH

This experiment has as its target calcium/calmodulin (CaM)-dependent protein kinase II (CaMKII) (UniProt P11275). In words: T-site mutants in kinase assays; block of NR2B binding.

No constants are given. Whether binding was seen depends on the method and setting. Some results given as binding are weak or reduced against the parent protein; the word gives no strength.

With KRPPKLGQIGRSKRVVIEDDR [CN21], the binding entry is recorded as “binds”.
